No constants are given. Whether binding was seen depends on the method and setting. For some of these results: Binding seen in cells or lysates may run through a third protein. For some of these results: Binding calls can cover weak binding; strength is not graded here. Sequences can lack the tags named with a protein.
Tests used:
[1] = biological target: T1, His-σ^32 (E. coli heat shock factor σ^32, RpoH) (E. coli C600) (UniProt P0AGB3); assay: co-IP; purified 6His-BnTR1 and mutant forms (prey) incubated with DnaK or His-σ^32; control without DnaK or His-σ^32; input lane used to adjust the concentration of BnTR1 forms
T1 sequence: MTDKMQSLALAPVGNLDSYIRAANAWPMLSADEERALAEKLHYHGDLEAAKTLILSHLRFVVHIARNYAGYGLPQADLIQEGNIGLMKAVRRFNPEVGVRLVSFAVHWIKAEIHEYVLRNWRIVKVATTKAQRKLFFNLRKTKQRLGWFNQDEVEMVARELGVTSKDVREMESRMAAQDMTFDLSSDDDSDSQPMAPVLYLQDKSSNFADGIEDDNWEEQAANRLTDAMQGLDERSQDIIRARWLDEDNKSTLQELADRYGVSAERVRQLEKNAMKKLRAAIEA

[2] = biological target: T2, σ^32 (RpoH), bacterial two-hybrid fusion (E. coli) (UniProt P0AGB3); assay: two-hybrid; bacterial two-hybrid system
T2 sequence: T1 sequence

Row | binding [1] | binding [2] | Substance
1 | binds |  | 6His-BnTR1 (RING domain E3 ligase from Brassica napus), wild type (enzyme)
2 |  | no binding | BnTR1ΔZn1 (BnTR1 C66S/C69S), bacterial two-hybrid fusion (Brassica napus) (enzyme)
3 | no binding |  | BnTR1ΔZn1 (BnTR1 C66S/C69S), purified (Brassica napus) (enzyme)
4 | binds |  | BnTR1ΔZn2 (BnTR1 C82S/C84S), purified (Brassica napus) (enzyme)
